In article PMC7709239 one finds binding data, which are given here for two substances.

Amino acid sequences for entries named in this document (tags omitted).
UniProt P08758: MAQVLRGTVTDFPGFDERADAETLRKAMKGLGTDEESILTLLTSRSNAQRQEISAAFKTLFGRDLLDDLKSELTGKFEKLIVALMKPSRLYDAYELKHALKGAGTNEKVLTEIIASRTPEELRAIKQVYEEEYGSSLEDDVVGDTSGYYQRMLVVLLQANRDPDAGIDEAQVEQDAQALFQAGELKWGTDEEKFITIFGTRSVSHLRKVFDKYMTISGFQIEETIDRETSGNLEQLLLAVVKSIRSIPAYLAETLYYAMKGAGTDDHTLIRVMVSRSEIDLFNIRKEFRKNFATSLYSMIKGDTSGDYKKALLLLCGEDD
UniProt Q702N8: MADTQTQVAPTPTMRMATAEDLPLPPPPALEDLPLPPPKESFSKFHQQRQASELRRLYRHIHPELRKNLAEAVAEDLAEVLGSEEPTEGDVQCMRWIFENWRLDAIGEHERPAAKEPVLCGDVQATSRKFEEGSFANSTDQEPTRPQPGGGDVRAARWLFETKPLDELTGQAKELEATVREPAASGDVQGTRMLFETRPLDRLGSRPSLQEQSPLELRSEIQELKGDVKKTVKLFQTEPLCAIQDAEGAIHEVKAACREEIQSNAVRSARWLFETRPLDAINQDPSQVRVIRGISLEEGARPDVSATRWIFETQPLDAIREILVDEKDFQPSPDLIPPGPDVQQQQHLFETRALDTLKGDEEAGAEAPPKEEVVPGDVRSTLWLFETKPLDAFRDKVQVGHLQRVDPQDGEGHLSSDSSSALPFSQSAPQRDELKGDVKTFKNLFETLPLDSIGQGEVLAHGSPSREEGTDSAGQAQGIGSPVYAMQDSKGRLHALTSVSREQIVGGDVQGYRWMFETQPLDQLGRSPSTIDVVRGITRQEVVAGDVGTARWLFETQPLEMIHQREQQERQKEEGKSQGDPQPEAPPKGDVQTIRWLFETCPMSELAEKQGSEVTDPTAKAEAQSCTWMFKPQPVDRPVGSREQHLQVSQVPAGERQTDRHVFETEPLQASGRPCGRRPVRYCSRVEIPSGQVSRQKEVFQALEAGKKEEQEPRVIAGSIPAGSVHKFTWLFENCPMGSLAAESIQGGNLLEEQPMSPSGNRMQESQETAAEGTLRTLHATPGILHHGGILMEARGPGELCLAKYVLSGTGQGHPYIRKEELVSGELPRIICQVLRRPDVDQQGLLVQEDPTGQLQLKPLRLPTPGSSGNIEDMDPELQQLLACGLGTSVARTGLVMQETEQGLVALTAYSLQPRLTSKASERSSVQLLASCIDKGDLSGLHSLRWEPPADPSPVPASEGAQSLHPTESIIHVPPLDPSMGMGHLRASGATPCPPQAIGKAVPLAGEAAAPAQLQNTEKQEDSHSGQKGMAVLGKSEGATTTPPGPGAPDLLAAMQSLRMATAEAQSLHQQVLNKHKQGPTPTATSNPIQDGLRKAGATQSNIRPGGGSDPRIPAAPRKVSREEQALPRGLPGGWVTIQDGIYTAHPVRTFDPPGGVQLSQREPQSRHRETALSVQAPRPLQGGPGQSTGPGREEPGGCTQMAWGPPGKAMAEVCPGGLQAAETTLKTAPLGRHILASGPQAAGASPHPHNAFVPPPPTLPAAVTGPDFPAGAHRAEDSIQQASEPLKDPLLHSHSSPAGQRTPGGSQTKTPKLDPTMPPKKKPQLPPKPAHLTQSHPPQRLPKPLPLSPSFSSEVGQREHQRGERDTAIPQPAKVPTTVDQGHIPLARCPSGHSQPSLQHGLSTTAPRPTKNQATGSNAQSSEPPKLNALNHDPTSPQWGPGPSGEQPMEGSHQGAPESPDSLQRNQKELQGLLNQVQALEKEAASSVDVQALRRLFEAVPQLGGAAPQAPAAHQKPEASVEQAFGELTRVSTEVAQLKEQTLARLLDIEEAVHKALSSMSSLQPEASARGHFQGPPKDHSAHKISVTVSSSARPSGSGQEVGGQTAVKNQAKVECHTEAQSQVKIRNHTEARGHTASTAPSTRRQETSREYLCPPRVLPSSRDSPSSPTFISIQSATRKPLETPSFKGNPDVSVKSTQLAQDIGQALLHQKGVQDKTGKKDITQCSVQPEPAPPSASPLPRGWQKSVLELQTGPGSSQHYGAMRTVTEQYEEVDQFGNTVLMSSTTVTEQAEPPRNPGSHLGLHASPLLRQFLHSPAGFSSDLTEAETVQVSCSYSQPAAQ

These are yes or no findings as the source states them, for the method shown. In cells and extracts the contact can be indirect. Some entries that bind do so weakly or less than the wild type. For part of these data: Tags and fused reporters may be left off the sequences shown.

Assay [1] addresses T1, GST-mouse Popdc1 (aa 114 to 357) fusion protein (mouse) (UniProt Q9ES83).
T1 sequence: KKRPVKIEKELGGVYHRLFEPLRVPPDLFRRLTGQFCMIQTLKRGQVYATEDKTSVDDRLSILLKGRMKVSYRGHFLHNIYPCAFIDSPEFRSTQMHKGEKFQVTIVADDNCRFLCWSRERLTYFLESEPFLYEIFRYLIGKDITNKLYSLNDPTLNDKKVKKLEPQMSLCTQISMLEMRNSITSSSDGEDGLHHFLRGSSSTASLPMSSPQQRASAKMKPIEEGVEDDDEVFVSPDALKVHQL
Put plainly: pull-down; glutathione beads loaded with recombinant GST-POPDC bait, incubated with human myotube extract in RIPA buffer; western blot of the pulled-down proteins; control: unloaded beads; only the target purified.

The target of assay [2] is T2, Popeye domain-containing protein 1 (human, endogenous) (human (endogenous in human myotubes)) (UniProt Q8NE79).
T2 sequence: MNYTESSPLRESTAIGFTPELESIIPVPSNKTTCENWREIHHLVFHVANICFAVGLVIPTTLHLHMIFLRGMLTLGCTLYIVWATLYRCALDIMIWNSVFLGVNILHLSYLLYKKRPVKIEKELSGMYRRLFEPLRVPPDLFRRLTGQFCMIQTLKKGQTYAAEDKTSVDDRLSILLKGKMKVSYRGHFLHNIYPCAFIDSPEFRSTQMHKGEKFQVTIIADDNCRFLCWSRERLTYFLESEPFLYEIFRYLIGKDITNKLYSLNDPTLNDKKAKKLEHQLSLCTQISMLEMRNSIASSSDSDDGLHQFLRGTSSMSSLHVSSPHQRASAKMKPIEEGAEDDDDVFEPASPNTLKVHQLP
Description: co-IP; Pan Mouse IgG Dynabeads loaded with mAb 1C12 against POPDC1, incubated with human myotube extract in RIPA buffer for 1 h; western blot with XIRP1 mAb; control: unloaded beads. A general note: In western blotting, separated proteins are transferred to a membrane and probed.

Take Annexin A5 (from UniProt P08758 1-320): the binding entry in assay [1] is recorded as “binds”.

As to “Xin actin-binding repeat-containing protein 1 (from UniProt Q702N8 1-1843)”, the binding entry in assay [1] and in assay [2] was “binds” each time.
